Here are results for 31 sequences from publication PMC7862700.

Only a part is listed here, and it is no random draw. For some assays here: At the low end of the ranking, values are background and their order means little. The list shows a part of the results. For some assays here: The exact form of the protein is not confirmed.

What all share (assay): DAPPL (digital affinity profiling via proximity ligation, sequencing)
Settings in all cases: 10 mM Tris-HCl pH 7.5, 50 mM NaCl, 1 mM DTT, 4% glycerol, room temperature, 30 min; GST-TFs on glutathione beads, 16-mer random dsDNA library, 0.1% …; high values mean tight binding; double strand, one strand shown; scale: fold enrichment (6-mer frequency, TF over GST control)

One experiment deals with T1, GABPA (UniProt Q06546).
T1 sequence: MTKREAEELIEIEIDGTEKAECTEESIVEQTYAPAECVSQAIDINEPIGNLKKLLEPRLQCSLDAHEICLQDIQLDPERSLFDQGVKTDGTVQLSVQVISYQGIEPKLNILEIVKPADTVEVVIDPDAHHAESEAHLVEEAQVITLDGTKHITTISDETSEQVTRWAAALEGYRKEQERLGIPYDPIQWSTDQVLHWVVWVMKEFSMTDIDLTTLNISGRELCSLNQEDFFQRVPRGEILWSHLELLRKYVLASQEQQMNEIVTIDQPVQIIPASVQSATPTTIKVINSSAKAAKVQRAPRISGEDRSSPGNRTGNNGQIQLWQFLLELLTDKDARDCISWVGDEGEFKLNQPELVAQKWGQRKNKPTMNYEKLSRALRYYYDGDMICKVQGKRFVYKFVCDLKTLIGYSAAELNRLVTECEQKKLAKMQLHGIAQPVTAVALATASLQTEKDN

In the next experiment the target is T2, ETS1 (UniProt P14921).
T2 sequence: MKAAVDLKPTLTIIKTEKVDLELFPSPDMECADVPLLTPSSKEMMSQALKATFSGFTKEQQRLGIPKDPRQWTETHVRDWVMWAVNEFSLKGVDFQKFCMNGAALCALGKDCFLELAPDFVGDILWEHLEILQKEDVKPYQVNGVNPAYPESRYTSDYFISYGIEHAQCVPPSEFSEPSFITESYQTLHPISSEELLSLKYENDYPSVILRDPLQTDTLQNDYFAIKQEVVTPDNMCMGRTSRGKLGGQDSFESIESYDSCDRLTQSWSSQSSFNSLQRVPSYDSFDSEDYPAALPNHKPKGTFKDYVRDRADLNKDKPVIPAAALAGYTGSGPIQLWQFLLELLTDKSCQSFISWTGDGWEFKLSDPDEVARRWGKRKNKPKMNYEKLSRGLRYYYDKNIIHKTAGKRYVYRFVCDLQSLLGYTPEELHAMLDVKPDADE

Another experiment concerns the target T3, SPDEF (UniProt O95238).
T3 sequence: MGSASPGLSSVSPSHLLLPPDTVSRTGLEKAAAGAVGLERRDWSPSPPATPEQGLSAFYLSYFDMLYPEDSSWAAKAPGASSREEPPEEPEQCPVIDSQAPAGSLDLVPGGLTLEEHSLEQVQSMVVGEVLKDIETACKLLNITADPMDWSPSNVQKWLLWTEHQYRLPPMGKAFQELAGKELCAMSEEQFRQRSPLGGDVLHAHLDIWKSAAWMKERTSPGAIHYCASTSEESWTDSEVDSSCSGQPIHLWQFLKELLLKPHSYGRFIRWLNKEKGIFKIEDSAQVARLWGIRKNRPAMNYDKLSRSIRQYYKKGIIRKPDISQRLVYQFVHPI

For GAGTAA, the figures for the binding signal with GABPA, with ETS1 and in the experiment with SPDEF were 0.568, 0.564 and 0.539, respectively.

In the case of CGTTAG, the binding signal stood at 0.877 with GABPA, 0.843 with ETS1 and 0.861 with SPDEF.

Consider CGTGGA, for which the binding signal with GABPA was 0.587; in the experiment with ETS1 it was 0.533; with SPDEF, 0.493.

Take GGGTCC: the binding signal in the experiment with GABPA turned out to be 0.772; in the experiment with ETS1 it was 0.806.

GTCCGA: the binding signal with GABPA turned out to be 0.845; with ETS1, 0.854; with SPDEF, 0.868.

In the case of GTAGGG, the values for the binding signal with GABPA, in the experiment with ETS1 and with SPDEF were 0.697, 0.729 and 0.699, respectively.

Consider GGAGTT, for which the figures for the binding signal with GABPA, with ETS1 and in the experiment with SPDEF were 0.396, 0.459 and 0.461, respectively.

On to GGTCAA, for which the binding signal is 0.961 with GABPA, 0.962 in the experiment with ETS1 and 0.932 in the experiment with SPDEF.

Regarding GAGGTT, the values for the binding signal with GABPA, in the experiment with ETS1 and with SPDEF were 0.777, 0.772 and 0.756, respectively.

In the case of CAGCCG, the figures for the binding signal in the experiment with GABPA, with ETS1 and in the experiment with SPDEF were 0.632, 0.603 and 0.705, respectively.

As for GCATGT, the binding signal in the experiment with GABPA amounted to 0.772; with ETS1, 0.842; with SPDEF, 0.779.

Turning to GGCGAA, the binding signal in the experiment with GABPA amounted to 0.731; with ETS1, 0.694; with SPDEF, 0.611.

For the sequence TGAGGG, the binding signal was 0.634 with GABPA, 0.633 with ETS1 and 0.606 in the experiment with SPDEF.

For AAGGAG, the binding signal worked out at 0.36 with GABPA, 0.328 in the experiment with ETS1 and 0.334 in the experiment with SPDEF.

As to GCATCG, the binding signal in the experiment with GABPA came to 0.847; with ETS1, 0.797; with SPDEF it was 0.73.

Take GAGTCC: the binding signal was found to be 0.381 in the experiment with GABPA, 0.365 in the experiment with ETS1 and 0.438 with SPDEF.

In the case of ACGCAG, the binding signal worked out at 0.817 with GABPA, 0.779 with ETS1 and 0.831 in the experiment with SPDEF.

GCGCCA: the values for the binding signal in the experiment with GABPA, with ETS1 and with SPDEF were 0.74, 0.792 and 0.716, respectively.

For GTCGGC, the binding signal with GABPA stood at 0.359; in the experiment with ETS1, 0.393; with SPDEF it was 0.407.

For the sequence CGGGTA, the figures for the binding signal with GABPA, in the experiment with ETS1 and with SPDEF were 0.796, 0.91 and 0.949, respectively.

Regarding CCGAGG, the figures for the binding signal with GABPA, with ETS1 and with SPDEF were 0.775, 0.71 and 0.716, respectively.

Take ACGGAG: the binding signal in the experiment with GABPA amounted to 0.39; in the experiment with ETS1, 0.381; with SPDEF, 0.36.

For GTGACG, the binding signal with GABPA was found to be 0.68; with ETS1 it was 0.687; with SPDEF it was 0.684.

On to CAAGTG, for which the binding signal with GABPA amounted to 0.798; with ETS1, 0.735; in the experiment with SPDEF it was 0.714.

Consider GCCGTT, for which the binding signal stood at 0.697 in the experiment with GABPA, 0.879 with ETS1 and 0.744 with SPDEF.

As to CACGGT, the values for the binding signal in the experiment with GABPA, with ETS1 and with SPDEF were 0.922, 0.941 and 0.957, respectively.

On to AGGTGC, for which the binding signal worked out at 0.72 in the experiment with GABPA, 0.609 with ETS1 and 0.592 in the experiment with SPDEF.

As for GGTGTA, the binding signal in the experiment with GABPA is 0.749; in the experiment with ETS1, 0.867; in the experiment with SPDEF, 0.813.

Consider GGGAGT, for which the binding signal was found to be 0.242 with GABPA, 0.226 with ETS1 and 0.226 with SPDEF.

Turning to CAGGGC, the binding signal is 0.815 in the experiment with GABPA, 0.762 with ETS1 and 0.764 with SPDEF.

With TAGGCG, the binding signal with GABPA came to 0.63; in the experiment with ETS1 it was 0.572; with SPDEF it was 0.597.
